Laboratory results taken from PubChem BioAssay AID504834 (National Center for Advancing Translational Sciences (NCATS), 2011).
The whole screen tested about 320,000 compounds, of which about 22,000 (6.9%) were called active. Inconclusive means that the source gave no clear call. Such entries were picked first, then a sample of the others. Calls follow the shape of the dose curve; as a rule, active = well fitted inhibition curve with a large enough effect; inconclusive = small, poorly fitted or top-dose-only effect, or another doubt; inactive = no such curve, though single readings can be large or run the other way. Potencies beside an inconclusive call are fits to weak or partial responses and may not hold up. Where a SMILES comes first, the peptide text is derived from it. The star is where a group is joined. Cbz = O=C(OCc1ccccc1)*

assay: Primary qHTS for delayed death inhibitors of the malarial parasite plastid, 96 hour incubation; conditions: P. falciparum luciferase reporter growth; series mostly up to 28.7 µM
Outline: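 96 h incubation, 37 C, 5% CO2, of luciferase-reporter P. falciparum-infected RBCs (2% hematocrit, 0.05% parasitemia final) with test compounds; endpoint luminescence.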
Potency is read from the fitted curve at half-maximal effect.

SMILES | Potency
O=c1c2ccccc2nc2sc(Nc3ccc(F)cc3)nn12 | inconclusive: 1.04 µM [activator, full curve]
CCc1nc(-c2cc3ccc(C)cc3[nH]c2=O)no1 | inconclusive: 16.5 µM [inhibitor, single point]
Cc1cc(NS(=O)(=O)c2ccc(NC(=O)COc3ccccc3[N+](=O)[O-])cc2)no1 | inconclusive: 13.1 µM [inhibitor, partial curve, poor fit]
COc1ccc(CC(=O)Nc2nn(C)c3nc4c(C)cccc4cc23)cc1 | inactive
Cc1ccccc1N1C(=O)c2cc(N)ccc2N/C1=C\F | inconclusive: 5.36 µM [inhibitor, partial curve]
O=C(N/C(=C\c1cccc(Br)c1)C(=O)N1CCCCC1)c1ccco1 | inconclusive: 0.0037 µM [inhibitor, full curve, poor fit]
CCOC(=O)C1=C(C)NC(=O)NC1c1ccc(OCC(=O)Nc2ccccc2)c(OC)c1 (stereo not drawn) | inconclusive: 10.4 µM [inhibitor, single point]
CN(C)C(CNC(=O)CNC(=O)c1ccc2ccccc2c1)c1ccccc1 (stereo not drawn) | inactive
Cc1nc2ccc(NC(=O)CCC3CCCC3)cc2s1 | inactive
CNc1oc(-c2ccccc2Cl)nc1P(=O)(c1ccccc1)c1ccccc1 | inconclusive: 18.5 µM [inhibitor, single point]
CCn1c(-c2ccccn2)nc2cc(S(=O)(=O)N(C)C)ccc21 | inactive
CN(C)c1ccc(NC(=O)CSc2nc(N)c(C(=O)Nc3ccc(N(C)C)cc3)s2)cc1 | inconclusive: 11.7 µM [inhibitor, single point]
CCOC(=O)C1CCCN(C(=O)c2ccc3nc(-c4ccccc4)c(-c4ccccc4)nc3c2)C1 (stereo not drawn) | active: 13.1 µM
CC(NC(=O)CNC(=O)C(Cc1ccccc1)NC(=O)OCc1ccccc1)C(N)=O (stereo not drawn) (Cbz-Phe-Gly-Ala-NH2; configuration not given here) | inconclusive: 2.94 µM [inhibitor, partial curve, poor fit]
Cc1nc2c3ccccc3nc(NNC(=O)CCC(=O)N3CCC(C)CC3)n2n1 | inconclusive: 11.7 µM [inhibitor, partial curve]
COc1ccc(CNC(=O)C(=O)NCCC2CCCCN2S(=O)(=O)c2cccs2)cc1 (stereo not drawn) | inconclusive: 10.4 µM [inhibitor, single point]
O=C(CCCCCn1c(=O)[nH]c2ccsc2c1=O)NCc1ccc2c(c1)OCO2 | inconclusive: 8.28 µM [inhibitor, partial curve]
CSCCC(NC(=O)c1cc([N+](=O)[O-])ccc1Cl)C(=O)O (stereo not drawn) | inactive
COc1ccc(CCn2nnnc2C(CC(C)C)N2CCN(c3ncccn3)CC2)cc1OC (stereo not drawn) | inactive
CN(C)C(=O)/C(=C/c1ccc(-c2cccc([N+](=O)[O-])c2)o1)NC(=O)c1ccccc1 | inconclusive: 4.15 µM [inhibitor, single point]
CC1CCN(c2oc(-c3ccco3)nc2S(=O)(=O)c2ccccc2)CC1 | active: 4.65 µM
CN(C)C(=O)c1cccc(-c2csc(N3CCC(C(N)=O)CC3)n2)c1 | inconclusive: 8.28 µM [activator, partial curve]
O=C(COC(=O)C1CC2C=CC1C2)Nc1cccc(S(=O)(=O)N2CCCCCC2)c1 (stereo not drawn) | inactive

An excerpt of these results, tab-delimited:
SMILES	Potency
CCOC(=O)C1=C(C)NC(=O)NC1c1ccc(OCC(=O)Nc2ccccc2)c(OC)c1 (stereo not drawn)	inconclusive: 10.4 µM [inhibitor, single point]
CCn1c(-c2ccccn2)nc2cc(S(=O)(=O)N(C)C)ccc21	inactive
COc1ccc(CNC(=O)C(=O)NCCC2CCCCN2S(=O)(=O)c2cccs2)cc1 (stereo not drawn)	inconclusive: 10.4 µM [inhibitor, single point]
O=C(COC(=O)C1CC2C=CC1C2)Nc1cccc(S(=O)(=O)N2CCCCCC2)c1 (stereo not drawn)	inactive

Later entries:

SMILES | Potency
O=C(Oc1cccc(N2C(=O)C3C4c5ccccc5C(c5ccccc54)C3C2=O)c1)c1ccco1 (stereo not drawn) | inconclusive: 11.7 µM [inhibitor, single point]
NS(=O)(=O)c1ccc(S(=O)(=O)N(CCc2ccccc2)Cc2ccccn2)cc1 | inconclusive: 9.28 µM [inhibitor, single point]
COc1ccc(CCNC(=O)CN(c2ccccc2OC)S(C)(=O)=O)cc1 | inconclusive: 3.7 µM [inhibitor, full curve, poor fit]
CCCCP(=O)(CCCC)Cc1ccccc1O | inconclusive: 18.5 µM [inhibitor, single point]
O=C(CN1CCC(NC(=O)Cc2ccccc2)CC1)Nc1ccccc1Br | inconclusive: 0.928 µM [inhibitor, full curve, poor fit]
Cc1ccc(C(=O)c2c3ccccc3[n+]([O-])n2CCC(N)=O)cc1 | inactive
CCN(CC)CCCC(C)Nc1cc(/C=C/c2ccccc2Cl)nc2cc(Cl)ccc12 (stereo not drawn) | active: 0.601 µM
CCCCn1c2ccccc2c2nnc(SCC(=O)NC3=NN=C(c4ccccc4)CS3)nc21 | inconclusive: 11.7 µM [inhibitor, single point]
COc1cccc(NC(=O)CN(C)C(C)C(=O)Nc2cc([N+](=O)[O-])ccc2Cl)c1 (stereo not drawn) | inactive
O=S1(=O)C=C(Oc2ccc(F)cc2)c2ccccc21 | inactive
O=C(CCCC(=O)c1ccc(O)cc1)c1ccc(O)cc1 | inactive
O=c1oc(-c2ccc(Cl)c(Cl)c2)nn1-c1ccc(C(F)(F)F)cn1 | inactive
S=C1NCCNC(=S)NCCOCCOCCOCCN1 | inconclusive: 1.04 µM [inhibitor, single point]
COc1ccc(S(=O)(=O)Nc2c(C)n(C)n(-c3ccccc3)c2=O)cc1 | inconclusive: 9.28 µM [inhibitor, partial curve]
CSc1ccc(S(=O)(=O)NCCCn2ccnc2)cc1 | inconclusive: 8.28 µM [inhibitor, partial curve, poor fit]
COc1ccc(CCNC(=O)c2cnc3ccccc3n2)cc1 | inactive
COc1ccc(S(=O)(=O)N2CCCCC2)cc1NC(=O)c1cnc(C)cn1 | inactive
Cc1cc(C)c(C)c(C(=O)c2ccccc2C(=O)O)c1C | inconclusive: 4.15 µM [inhibitor, partial curve, poor fit]
CCOC(=O)CSc1ncnc2c1nnn2-c1ccc(F)cc1 | inconclusive: 0.185 µM [inhibitor, partial curve, poor fit]
CNc1nc(N)c([N+](=O)[O-])c(Nc2cccc(F)c2)n1 | inconclusive: 0.828 µM [inhibitor, full curve, poor fit]
O=C(c1cc2cc(F)ccc2[nH]1)N(Cc1cccnc1)CC1CCCN(C2CCCCC2)C1 (stereo not drawn) | inconclusive: 1.47 µM [inhibitor, partial curve, poor fit]
COc1ccc(NC(=O)COc2ccc(/C=N/O)cc2OC)cc1 | inactive
COC(=O)Cn1cc(S(=O)(=O)NCc2ccc(C)cc2)c2cc([N+](=O)[O-])ccc21 | inconclusive: 11.7 µM [inhibitor, single point]

SMILES | Potency
CCCC(c1nnnn1Cc1ccc2c(c1)OCO2)N1CCC(C(N)=O)CC1 (stereo not drawn) | inactive
COCCNc1nnc(SCC(=O)Nc2nnc(-c3ccccc3)o2)s1 | inactive
CC1(C)CC(NS(=O)(=O)OCC(Cl)(Cl)Cl)c2cc(C#N)ccc2O1 (stereo not drawn) | inconclusive: 18.5 µM [inhibitor, single point]
COc1ccc(CNC(=O)COC(=O)c2c(C)nn(-c3ccccc3)c2C)cc1OC | inactive
CCN1CCN(CCCNC(=O)c2ccc(/C=C3/Oc4ccccc4N(Cc4cccc(C)c4)C3=O)cc2)CC1 | inconclusive: 9.28 µM [inhibitor, partial curve]
Cn1c(=O)nc2n(Cc3ccccc3)c3cccc(Cl)c3cc-2c1=O | inconclusive: 10.4 µM [inhibitor, single point]
COc1cc(CNC(C)c2ccccc2)cc(Br)c1OCc1ccccc1 (stereo not drawn) | inconclusive: 18.5 µM [inhibitor, single point]
COc1ccc(-n2c(C)cc(=O)c3c2CC(C)(C)CC3=O)cc1 | inconclusive: 11.7 µM [inhibitor, single point]
COc1ccc(Cc2nnc(-c3cccc(C)c3)o2)cc1OC | inactive
CC(=O)C12CCCCC1CC1[C@@H]3CC(C)C4=CC(=O)CC[C@]4(C)C3CC[C@@]12C (stereo partly drawn) | inconclusive: 18.5 µM [inhibitor, single point]
COc1ccc(CCNC(=O)Cn2ccc3c(OC)cccc3c2=O)cc1OC | inactive
O=C(Nc1ccc(OC(F)(F)F)cc1)C1CCCN(S(=O)(=O)c2cccnc2)C1 (stereo not drawn) | inconclusive: 18.5 µM [inhibitor, single point]
Cc1ccc(NC(=O)COC(=O)c2ccco2)cc1 | inactive
COc1ccccc1C(CNC(=O)c1cccc(S(=O)(=O)Nc2ccc(C)cc2)c1)N(C)C (stereo not drawn) | inconclusive: 13.1 µM [inhibitor, single point]
CN(CC(=O)Nc1ccc(N2CCOCC2)cc1)CC(=O)Nc1ccc(N2CCOCC2)cc1 | inactive
Cc1oc(-c2ccc(Cl)cc2)nc1CN1CCC(C(=O)NCC2CCCO2)CC1 (stereo not drawn) | inconclusive: 20.8 µM [inhibitor, partial curve, poor fit]
Cc1c(Cc2ccccc2)c(NCCN(C)C)n2c(nc3ccccc32)c1C#N | inconclusive: 1.65 µM [inhibitor, full curve, poor fit]
CCOC(=O)NC1(Nc2ccc(C)cc2)Oc2ccccc2O1 | inconclusive: 13.1 µM [inhibitor, single point]
CC(C)C1(CCNC(=O)c2cccs2)CCOC(C)(C)C1 (stereo not drawn) | inconclusive: 5.22 µM [inhibitor, partial curve]
CCCCOC(=O)n1c(SCC(=O)N(CC)CC)nc2ccccc21 | active: 2.62 µM
O=C(COc1ccccc1Cl)NC(=S)Nc1ccc(CN2CCOCC2)cc1 | inconclusive: 18.5 µM [inhibitor, single point]
COc1ccc(NS(=O)(=O)c2cc(NC(=O)CCSc3ccccc3)ccc2OC)cc1 | inconclusive: 11.7 µM [inhibitor, single point]
